No constants are given. Whether binding was seen depends on the method and setting. Binding seen in cells or lysates may run through a third protein. Some results given as binding are weak or reduced against the parent protein; the word gives no strength.
Key:
[1] = biological target: BCL-xL (mouse (endogenous in embryonic fibroblasts)) (UniProt Q64373); assay: co-IP; immunoprecipitation with anti-14-3-3 or anti-BCL-xL antibody, immunoblotting for BAD; Bad-/- fibroblasts expressing WT BAD or BAD(S26D) treated with cytotoxic dose TNFα (80 ng/ml), or WT BAD or BAD(S26A) treated with non-cytotoxic dose TNFα (5 ng/ml), various durations
[2] = biological target: Vimentin, endogenous in WT fibroblasts (mouse (endogenous in embryonic fibroblasts)) (UniProt P20152); assay: proximity ligation; Duolink in situ fluorescent detection reagents in WT fibroblasts, confocal imaging; resting cells and cells treated with cytotoxic dose TNFα

Amino acid sequences for entries named in this document (tags omitted).
UniProt Q64373: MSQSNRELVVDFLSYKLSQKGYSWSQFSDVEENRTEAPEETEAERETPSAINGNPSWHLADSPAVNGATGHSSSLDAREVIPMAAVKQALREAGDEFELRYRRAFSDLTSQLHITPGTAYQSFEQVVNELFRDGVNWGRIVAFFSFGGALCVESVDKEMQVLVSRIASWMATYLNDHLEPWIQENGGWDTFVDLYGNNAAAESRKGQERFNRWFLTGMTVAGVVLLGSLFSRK
UniProt P20152: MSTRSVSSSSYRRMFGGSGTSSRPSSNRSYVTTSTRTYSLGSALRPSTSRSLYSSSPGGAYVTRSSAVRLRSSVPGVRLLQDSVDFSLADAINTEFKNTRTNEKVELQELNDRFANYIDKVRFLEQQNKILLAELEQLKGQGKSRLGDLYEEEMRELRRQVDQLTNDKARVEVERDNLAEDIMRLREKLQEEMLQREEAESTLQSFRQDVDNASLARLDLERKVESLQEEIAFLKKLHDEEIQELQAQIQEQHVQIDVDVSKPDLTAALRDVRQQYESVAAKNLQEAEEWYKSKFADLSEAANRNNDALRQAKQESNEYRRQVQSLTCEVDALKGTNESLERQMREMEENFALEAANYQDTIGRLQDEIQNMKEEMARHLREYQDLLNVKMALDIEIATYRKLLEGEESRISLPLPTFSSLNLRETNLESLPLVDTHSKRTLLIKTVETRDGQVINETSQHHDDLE

| Binder | binding [1] | binding [2] |
| --- | --- | --- |
| BAD(S26A) mutant ectopically expressed in Bad-/- fibroblasts (protein, UniProt Q61337 1-204) MGTPKQPSLAPAHALGLRKSDPGIRALGSDAGGRRWRPAAQSMFQIPEFEPSEQEDASATDRGLGPSLTEDQPGPYLAPGLLGSNIHQQGRAATNSHHGGAGAMETRSRHSSYPAGTEEDEGMEEELSPFRGRSRSAPPNLWAAQRYGRELRRMSDEFEGSFKGLPRPKSAGTATQMRQSAGWTRIIQSWWDRNLGKGGSTPSQ | binds | – |
| BAD(S26D) mutant ectopically expressed in Bad-/- fibroblasts (protein, UniProt Q61337 1-204) MGTPKQPSLAPAHALGLRKSDPGIRDLGSDAGGRRWRPAAQSMFQIPEFEPSEQEDASATDRGLGPSLTEDQPGPYLAPGLLGSNIHQQGRAATNSHHGGAGAMETRSRHSSYPAGTEEDEGMEEELSPFRGRSRSAPPNLWAAQRYGRELRRMSDEFEGSFKGLPRPKSAGTATQMRQSAGWTRIIQSWWDRNLGKGGSTPSQ | no binding | – |
| BAD, endogenous in WT fibroblasts (protein, UniProt Q61337 1-204) MGTPKQPSLAPAHALGLRKSDPGIRSLGSDAGGRRWRPAAQSMFQIPEFEPSEQEDASATDRGLGPSLTEDQPGPYLAPGLLGSNIHQQGRAATNSHHGGAGAMETRSRHSSYPAGTEEDEGMEEELSPFRGRSRSAPPNLWAAQRYGRELRRMSDEFEGSFKGLPRPKSAGTATQMRQSAGWTRIIQSWWDRNLGKGGSTPSQ | – | no binding |

From PMC6028455
